# Source: the supplement of paper PMC8728848
# Some of the results follow.
# How the values were obtained:
# Assay in all cases: glycan array binding signal (z-score within array); higher = stronger binding
# Details in all cases: glycan notation: IUPAC condensed, linker removed
# [1] = biological target: Neu5Ac(a2-8)Neu5Ac
# Method in brief: (§1)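 Arrays were curated from the Consortium for Functional Glycomics database, 3228 in total, and kept only where the protein sequence was available. Binding is expressed as a within-array Z-score. This score was averaged across arrays of the same protein sequence at different concentrations or buffers and across linkers, and negative values can be read as non-binding.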
# [2] = biological target: Neu5Ac(a2-8)Neu5Ac(a2-3)Gal(b1-3)GalNAc(b1-4)[Neu5Ac(a2-3)]Gal(b1-4)Glc
# Method in brief: as §1
# [3] = biological target: Neu5Ac(a2-8)Neu5Ac(a2-3)Gal(b1-3)GalNAc(b1-4)[Neu5Ac(a2-8)Neu5Ac(a2-3)]Gal(b1-4)Glc
# Method in brief: as §1
# [4] = biological target: Neu5Ac(a2-8)Neu5Ac(a2-3)Gal(b1-4)Glc
# Method in brief: as §1
# [5] = biological target: Neu5Ac(a2-8)Neu5Ac(a2-3)Gal(b1-4)GlcNAc
# Method in brief: as §1
# [6] = biological target: Neu5Ac(a2-8)Neu5Ac(a2-3)[Gal(b1-3)GalNAc(b1-4)]Gal(b1-4)Glc
# Method in brief: as §1
# [7] = biological target: Neu5Ac(a2-8)Neu5Ac(a2-3)[GalNAc(b1-4)]Gal(b1-4)Glc
# Method in brief: as §1
# [8] = biological target: Neu5Ac(a2-8)Neu5Ac(a2-8)Neu5Ac
# Method in brief: as §1
# [9] = biological target: Neu5Ac(a2-8)Neu5Ac(a2-8)Neu5Ac(a2-3)Gal(b1-4)Glc
# Method in brief: as §1
# [10] = biological target: Neu5Ac(a2-8)Neu5Ac(a2-8)Neu5Ac(a2-3)[Gal(b1-3)GalNAc(b1-4)]Gal(b1-4)Glc
# Method in brief: as §1
# [11] = biological target: Neu5Ac(a2-8)Neu5Ac(a2-8)Neu5Ac(a2-3)[GalNAc(b1-4)]Gal(b1-4)Glc
# Method in brief: as §1
# [12] = biological target: Neu5Ac(a2-8)Neu5Ac(a2-8)Neu5Ac(a2-8)Neu5Ac(a2-3)[GalNAc(b1-4)]Gal(b1-4)Glc
# Method in brief: as §1
# [13] = biological target: Neu5Ac(a2-8)Neu5Gc(a2-3)Gal(b1-4)GlcNAc
# Method in brief: as §1
# [14] = biological target: Neu5Ac(b2-6)Gal(b1-4)GlcNAc
# Method in brief: as §1
# [15] = biological target: Neu5Ac(b2-6)GalNAc
# Method in brief: as §1
# [16] = biological target: Neu5Ac9Ac(a2-3)Gal(b1-4)GlcNAc
# Method in brief: as §1
# [17] = biological target: Neu5Ac9Ac(a2-6)Gal(b1-4)GlcNAc
# Method in brief: as §1
# [18] = biological target: Neu5Gc(a2-3)Gal(b1-3)GlcNAc
# Method in brief: as §1
# [19] = biological target: Neu5Gc(a2-3)Gal(b1-3)[Fuc(a1-4)]GlcNAc
# Method in brief: as §1
# [20] = biological target: Neu5Gc(a2-3)Gal(b1-4)Glc
# Method in brief: as §1
# [21] = biological target: Neu5Gc(a2-3)Gal(b1-4)GlcNAc
# Method in brief: as §1
# [22] = biological target: Neu5Gc(a2-3)Gal(b1-4)GlcNAc(b1-3)Gal(b1-4)GlcNAc(b1-2)Man(a1-3)[Neu5Gc(a2-3)Gal(b1-4)GlcNAc(b1-3)Gal(b1-4)GlcNAc(b1-2)Man(a1-6)]Man(b1-4)GlcNAc(b1-4)GlcNAc
# Method in brief: as §1
# [23] = biological target: Neu5Gc(a2-3)Gal(b1-4)[Fuc(a1-3)]GlcNAc
# Method in brief: as §1
# [24] = biological target: Neu5Gc(a2-6)Gal(b1-4)GlcNAc
# Method in brief: as §1
# [25] = biological target: Neu5Gc(a2-6)GalNAc
# Method in brief: as §1
# [26] = biological target: Neu5Gc(a2-8)Neu5Ac(a2-3)Gal(b1-4)GlcNAc
# Method in brief: as §1
# [27] = biological target: Neu5Gc(a2-8)Neu5Gc(a2-3)Gal(b1-4)GlcNAc
# Method in brief: as §1
# [28] = biological target: Neu5Gc(a2-8)Neu5Gc(a2-3)Gal(b1-4)GlcNAc(b1-3)Gal(b1-4)GlcNAc
# Method in brief: as §1
# [29] = biological target: Neu5Gc(a2-8)Neu5Gc(a2-6)Gal(b1-4)GlcNAc
# Method in brief: as §1
# [30] = biological target: Neu5Gc(b2-6)Gal(b1-4)GlcNAc
# Method in brief: as §1
binder,measurement,setting,value
Blon2355mut (Bifidobacterium longum) (protein) MVQEPTLEWHVIPEPTNVEPLVGTCSLPLSGTVVEQRGADDAEAVFARQLVDDIKRVCGGRWQVASGEVQREVTLRTSPSLDDWSYVLEVSPDGVVITGSGFEGVRDGVQTLRQIIRQIGLTIPCMVIRDRPAFSTRGYYLDVTRGRVPSMAWLKSWVDRLCFYKYNQFQLYIEHTFQFNGLSEVWRGADPLTSSDILELDSYCAARGIELVPSVSTFGHHYTALRTRQLRDLGEFPEDADRPFSLIERMTHHTLNITDERSYEFSTSLIDELMPLFRSRKFNICANETFDLGKGRSKQESAKRGVGAMYADFVERLCRHVDDRGHDVMVWADVALEHPEIIDTLPKNITWLNWQYEPNVDDGTTAALADAGATQMVCPAVWCWNALIPRIDDAWNNITRMARHGRAHDVSGMLVTDWGDFGHVNDPRMSVPGMIFGAQQSWNPDAELSEVDMLSRISTIEYGDHTGSVVGALRGASAKGGFSWSDLVTYLELDDGRGGCNTEIVRVMGCLEAYRNDLPQSGQARLADARVSMLRTLRDSILAGRELNGKLDDAAKDITQLLRVAGDPSSAAVWSLAIDGQRLLNRVGLALLAAHGVVRQDEAGIDAAKLADELECWTEQYSRLWHEVSRQSELARIQHVVWRAADVLRSI,glycan array binding signal (z-score),[1],0.085
same,glycan array binding signal (z-score),[2],0.706
same,glycan array binding signal (z-score),[3],1.09
same,glycan array binding signal (z-score),[4],-1.14
same,glycan array binding signal (z-score),[5],-0.342
same,glycan array binding signal (z-score),[6],-1.1
same,glycan array binding signal (z-score),[7],2.53
same,glycan array binding signal (z-score),[8],-0.1
same,glycan array binding signal (z-score),[9],-0.733
same,glycan array binding signal (z-score),[10],0.635
same,glycan array binding signal (z-score),[11],-0.7
same,glycan array binding signal (z-score),[12],-0.076
same,glycan array binding signal (z-score),[13],-0.455
same,glycan array binding signal (z-score),[14],-0.652
same,glycan array binding signal (z-score),[15],-1.2
same,glycan array binding signal (z-score),[16],-0.722
same,glycan array binding signal (z-score),[17],3.4
same,glycan array binding signal (z-score),[18],-0.793
same,glycan array binding signal (z-score),[19],-0.061
same,glycan array binding signal (z-score),[20],-0.458
same,glycan array binding signal (z-score),[21],-0.138
same,glycan array binding signal (z-score),[22],0.496
same,glycan array binding signal (z-score),[23],-0.951
same,glycan array binding signal (z-score),[24],-0.025
same,glycan array binding signal (z-score),[25],-0.59
same,glycan array binding signal (z-score),[26],-0.298
same,glycan array binding signal (z-score),[27],-0.974
same,glycan array binding signal (z-score),[28],-0.744
same,glycan array binding signal (z-score),[29],-0.316
same,glycan array binding signal (z-score),[30],-0.829

# Part of the list above, bar-delimited.
binder | measurement | setting | value
Blon2355mut (Bifidobacterium longum) (protein) MVQEPTLEWHVIPEPTNVEPLVGTCSLPLSGTVVEQRGADDAEAVFARQLVDDIKRVCGGRWQVASGEVQREVTLRTSPSLDDWSYVLEVSPDGVVITGSGFEGVRDGVQTLRQIIRQIGLTIPCMVIRDRPAFSTRGYYLDVTRGRVPSMAWLKSWVDRLCFYKYNQFQLYIEHTFQFNGLSEVWRGADPLTSSDILELDSYCAARGIELVPSVSTFGHHYTALRTRQLRDLGEFPEDADRPFSLIERMTHHTLNITDERSYEFSTSLIDELMPLFRSRKFNICANETFDLGKGRSKQESAKRGVGAMYADFVERLCRHVDDRGHDVMVWADVALEHPEIIDTLPKNITWLNWQYEPNVDDGTTAALADAGATQMVCPAVWCWNALIPRIDDAWNNITRMARHGRAHDVSGMLVTDWGDFGHVNDPRMSVPGMIFGAQQSWNPDAELSEVDMLSRISTIEYGDHTGSVVGALRGASAKGGFSWSDLVTYLELDDGRGGCNTEIVRVMGCLEAYRNDLPQSGQARLADARVSMLRTLRDSILAGRELNGKLDDAAKDITQLLRVAGDPSSAAVWSLAIDGQRLLNRVGLALLAAHGVVRQDEAGIDAAKLADELECWTEQYSRLWHEVSRQSELARIQHVVWRAADVLRSI | glycan array binding signal (z-score) | [24] | -0.025
same | glycan array binding signal (z-score) | [26] | -0.298
